{"source": "PubChem BioAssay AID1224828 (NIAID, 2016)", "assay": "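Knock-downs that increase or decrease LPS-induced p65 nuclear translocation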 (primary screen)", "cell system": "mouse RAW264.7 G9 macrophage reporter cells (GFP-p65, Tnf promoter-mCherry)", "reagents": "siRNA pool against mouse genes, 100 nM", "time to read-out": "2 days siRNA transfection, then 40 min LPS before fixation", "conditions": "LPS (Salmonella minnesota R595) at 10 ng/ml", "measured": "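Microscopy ratio of nuclear to perinuclear-ring GFP-p65 signal, scaled to the plate median; gene score is the average of two replicate robust z-scores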", "scale": "p65 translocation robust z-score: higher = more nuclear NF-kappaB p65 after LPS than the plate median; nuclear/cytoplasmic p65 ratio: higher = more nuclear NF-kappaB p65", "rule for the call": "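Active if robust z is above 3.3 (negative regulators) or below -1.56, the Tlr4 control median (positive regulators); activity score 50 or more; control wells not called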", "meaning of the calls": "active = hit (p65 shift raised or lowered); inactive = no clear change", "note": "The whole screen tested about 17,000 reagents; this is an unselected part. 762 of them (4.5%) count as active. 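Active calls include both raised and lowered p65 entry, mostly lowered; wells with fewer than 50 cells lack a z-score.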 Raw values are not corrected between plates. Entries without a mark were called inactive."}
{"Gene": "Aimp1", "p65 translocation robust z-score": -0.47, "nuclear/cytoplasmic p65 ratio, rep 1": 1.5, "nuclear/cytoplasmic p65 ratio, rep 2": 1.47, "low cell count flag": "enough cells to score"}
{"Gene": "Foxm1 (forkhead box M1)", "p65 translocation robust z-score": -0.17, "nuclear/cytoplasmic p65 ratio, rep 1": 1.36, "nuclear/cytoplasmic p65 ratio, rep 2": 1.4, "low cell count flag": "enough cells to score"}
{"Gene": "Pxk (PX domain containing serine/threonine kinase)", "p65 translocation robust z-score": 0.65, "nuclear/cytoplasmic p65 ratio, rep 1": 1.77, "nuclear/cytoplasmic p65 ratio, rep 2": 1.47, "low cell count flag": "enough cells to score"}
{"Gene": "Lcn10 (lipocalin 10)", "p65 translocation robust z-score": -0.17, "nuclear/cytoplasmic p65 ratio, rep 1": 1.4, "nuclear/cytoplasmic p65 ratio, rep 2": 1.53, "low cell count flag": "enough cells to score"}
{"Gene": "Or1aa2 (olfactory receptor family 1 subfamily AA member 2)", "p65 translocation robust z-score": -1.09, "nuclear/cytoplasmic p65 ratio, rep 1": 1.39, "nuclear/cytoplasmic p65 ratio, rep 2": 1.33, "low cell count flag": "enough cells to score"}
{"Gene": "Pcdha9 (protocadherin alpha 9)", "p65 translocation robust z-score": -0.87, "nuclear/cytoplasmic p65 ratio, rep 1": 1.3, "nuclear/cytoplasmic p65 ratio, rep 2": 1.17, "low cell count flag": "enough cells to score"}

An excerpt from the list above, as a working copy:
{"Gene": "Or1aa2 (olfactory receptor family 1 subfamily AA member 2)", "p65 translocation robust z-score": -1.09, "nuclear/cytoplasmic p65 ratio, rep 1": 1.39, "nuclear/cytoplasmic p65 ratio, rep 2": 1.33, "low cell count flag": "enough cells to score"}
{"Gene": "Pcdha9 (protocadherin alpha 9)", "p65 translocation robust z-score": -0.87, "nuclear/cytoplasmic p65 ratio, rep 1": 1.3, "nuclear/cytoplasmic p65 ratio, rep 2": 1.17, "low cell count flag": "enough cells to score"}

More results:
{"Gene": "Lrrn3 (leucine rich repeat protein 3, neuronal)", "p65 translocation robust z-score": 0.01, "nuclear/cytoplasmic p65 ratio, rep 1": 1.75, "nuclear/cytoplasmic p65 ratio, rep 2": 1.52, "low cell count flag": "enough cells to score"}
{"Gene": "Kcnq2 (potassium voltage-gated channel, subfamily Q, member 2)", "p65 translocation robust z-score": -0.15, "nuclear/cytoplasmic p65 ratio, rep 1": 1.44, "nuclear/cytoplasmic p65 ratio, rep 2": 1.38, "low cell count flag": "enough cells to score"}
{"Gene": "Lncpint (long non-protein coding RNA, Trp53 induced transcript)", "nuclear/cytoplasmic p65 ratio, rep 1": 0.951, "nuclear/cytoplasmic p65 ratio, rep 2": 1.16, "low cell count flag": "fewer than 50 cells per well; well left out of scoring"}
{"Gene": "Pcdhb1 (protocadherin beta 1)", "nuclear/cytoplasmic p65 ratio, rep 1": 1.18, "nuclear/cytoplasmic p65 ratio, rep 2": 1.43, "low cell count flag": "fewer than 50 cells per well; well left out of scoring"}
{"Gene": "Ina (internexin neuronal intermediate filament protein, alpha)", "p65 translocation robust z-score": -0.59, "nuclear/cytoplasmic p65 ratio, rep 1": 1.46, "nuclear/cytoplasmic p65 ratio, rep 2": 1.32, "low cell count flag": "enough cells to score"}
{"Gene": "Myt1l (myelin transcription factor 1-like)", "p65 translocation robust z-score": -0.06, "nuclear/cytoplasmic p65 ratio, rep 1": 1.47, "nuclear/cytoplasmic p65 ratio, rep 2": 1.3, "low cell count flag": "enough cells to score"}
